Structures can show the parent of a compound that is named as a salt. The list shows a part of the results. The calls rarely recur for the same compound in another form.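 Kinases were expressed as nanoluciferase fusions in K562 cells and luminescence was read every 4 h between 2 and 18 h as percent of control, DMSO set to 100% and a positive control to 0%. A time point counts as decreased when the signal drops significantly (2 sigma). The hit call is the authors' own, does not follow from the count of time points alone, and its rule is not shown.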
Each molecule was assayed against INSRR (UniProt P14616) (assay: kinase-Nluc reporter destabilization hit call (1 = scored as downregulated) (binary); higher = compound decreases kinase abundance). Settings: K562; 2-18 h.

Sequences of proteins named here, by UniProt entry; tags and fusion partners are left off. A change or cut given only in a name is not applied to a line headed by its entry.
UniProt P14616: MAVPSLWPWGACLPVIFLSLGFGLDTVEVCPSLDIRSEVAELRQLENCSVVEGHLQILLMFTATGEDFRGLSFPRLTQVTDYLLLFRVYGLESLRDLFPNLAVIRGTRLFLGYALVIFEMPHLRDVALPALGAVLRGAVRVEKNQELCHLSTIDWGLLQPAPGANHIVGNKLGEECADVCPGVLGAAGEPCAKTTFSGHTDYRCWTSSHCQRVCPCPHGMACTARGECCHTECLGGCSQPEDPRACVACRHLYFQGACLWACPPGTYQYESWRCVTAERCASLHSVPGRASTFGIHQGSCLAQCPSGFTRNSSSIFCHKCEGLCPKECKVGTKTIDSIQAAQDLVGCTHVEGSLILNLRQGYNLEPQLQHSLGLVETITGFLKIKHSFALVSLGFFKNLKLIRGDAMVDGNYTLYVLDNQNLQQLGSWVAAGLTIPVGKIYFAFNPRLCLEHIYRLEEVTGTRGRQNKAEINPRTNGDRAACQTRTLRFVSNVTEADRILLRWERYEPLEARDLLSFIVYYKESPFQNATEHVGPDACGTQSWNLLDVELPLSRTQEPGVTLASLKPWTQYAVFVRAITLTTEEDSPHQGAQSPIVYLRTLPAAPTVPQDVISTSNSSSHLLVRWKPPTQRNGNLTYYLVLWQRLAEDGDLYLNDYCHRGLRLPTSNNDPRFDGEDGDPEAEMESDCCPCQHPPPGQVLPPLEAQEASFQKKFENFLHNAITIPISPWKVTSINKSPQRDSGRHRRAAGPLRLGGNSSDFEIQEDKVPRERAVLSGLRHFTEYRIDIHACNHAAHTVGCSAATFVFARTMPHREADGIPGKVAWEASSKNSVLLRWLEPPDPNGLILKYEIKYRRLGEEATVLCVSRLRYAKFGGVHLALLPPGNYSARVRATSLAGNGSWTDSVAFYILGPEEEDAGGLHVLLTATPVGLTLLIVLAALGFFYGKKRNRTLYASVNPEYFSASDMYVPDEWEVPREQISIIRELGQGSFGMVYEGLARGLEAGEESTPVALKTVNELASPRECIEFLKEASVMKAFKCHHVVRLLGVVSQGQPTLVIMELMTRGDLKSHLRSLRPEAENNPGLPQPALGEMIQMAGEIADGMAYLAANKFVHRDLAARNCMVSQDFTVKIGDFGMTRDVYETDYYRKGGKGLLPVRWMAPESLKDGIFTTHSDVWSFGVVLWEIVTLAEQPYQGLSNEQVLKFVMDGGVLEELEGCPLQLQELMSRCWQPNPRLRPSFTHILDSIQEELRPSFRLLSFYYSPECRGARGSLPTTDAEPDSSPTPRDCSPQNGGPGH

| Structure (SMILES) | kinase-Nluc reporter destabilization hit call |
| --- | --- |
| O=c1[nH]c2ccccc2n1C1CCN(Cc2ccc(-c3[nH]c4cc5ncnc5cc4nc3-c3ccccc3)cc2)CC1 [AKT inhibitor VIII] (2.5 µM) | inactive: 0 |
| C[C@H]1CC[C@]2(NC1)O[C@H]1C[C@H]3[C@@H]4CC[C@H]5C[C@@H](O[C@@H]6O[C@H](CO)[C@H](O[C@@H]7O[C@H](CO)[C@@H](O)[C@H](O[C@@H]8OC[C@@H](O)[C@H](O)[C@H]8O)[C@H]7O[C@@H]7O[C@H](CO)[C@@H](O)[C@H](O)[C@H]7O)[C@H](O)[C@H]6O)CC[C@]5(C)[C@H]4CC[C@]3(C)[C@H]1[C@@H]2C [Tomatine] (2.5 µM) | inactive: 0 |
| C=C[C@H]1CN2CC[C@]3(C(=O)Nc4ccccc43)[C@@H]2C[C@@H]1/C(=C\OC)C(=O)OC [Corynoxeine] (2 µM) | inactive: 0 |
| C=CC(=O)Nc1ccc2[nH]c(=O)n(C3CCN(Cc4ccc(-c5nc6cc[nH]c(=O)c6cc5-c5ccccc5)cc4)CC3)c2c1 [Borussertib] (10 µM) | inactive: 0 |
| CCOC(=O)c1c(/C(C#N)=C\N)c2ccc(Cl)c(Cl)c2n1C (10 µM) | inactive: 0 |
| CC(=O)OC(C)(C)/C=C/C(=O)[C@](C)(O)[C@H]1[C@H](O)C[C@@]2(C)[C@@H]3CC=C4[C@@H](C=C(O)C(=O)C4(C)C)[C@]3(C)C(=O)C[C@]12C [Cucurbitacin E] (2.5 µM) | inactive: 0 |
| Cc1[nH]ncc1-c1cc2nc([C@H]3CC4CCN3CC4)[nH]c(=O)c2s1 [(R)-Simurosertib] (10 µM) | inactive: 0 |
| C[C@H]1CC[C@]2(NC1)O[C@H]1C[C@H]3[C@@H]4CC[C@H]5C[C@@H](O)CC[C@]5(C)[C@H]4CC[C@]3(C)[C@H]1[C@@H]2C [Tomatidine] (2 µM) | inactive: 0 |
| O=Cc1cn(Cc2ccc(Cl)cc2)c2ccccc12 [Oncrasin-1] (10 µM) | inactive: 0 |
| O=[N+]([O-])/C=C/c1ccc2c(c1)OCO2 (2.5 µM) | inactive: 0 |
| CCN1CCN(C(=O)Cc2ccc(Nc3ncc(F)c(Nc4ccc(C(=O)Nc5ccccc5Cl)cc4)n3)cc2)CC1 (2.5 µM) | inactive: 0 |
| COc1ccc2c(c[n+](C)c3c4cc5c(cc4ccc23)OCO5)c1OC [Chelerythrine (chloride)] (10 µM) | inactive: 0 |
| COC[C@H]1OC(=O)c2coc3c2[C@@]1(C)C1=C(C3=O)[C@@H]2CCC(=O)[C@@]2(C)C[C@H]1OC(C)=O [Wortmannin] (2.5 µM) | inactive: 0 |
| C[C@H]1CC[C@]2(NC1)O[C@H]1C[C@H]3[C@@H]4CC[C@H]5C[C@@H](O)CC[C@]5(C)[C@H]4CC[C@]3(C)[C@H]1[C@@H]2C [Tomatidine (hydrochloride)] (10 µM) | inactive: 0 |
| COc1ccc(/C=C/c2cc(OC)c(OC)c(OC)c2)cc1 (2.5 µM) | inactive: 0 |
| O=c1cc(O)c2ccccc2o1 [4-Hydroxycoumarin] (10 µM) | inactive: 0 |
| C=CC(=O)N[C@H]1C=C(C)c2c(-c3cnc4ccccc4c3)c3c(N)ncnc3n2C1 (10 µM) | inactive: 0 |
| N#CC(C#N)=Cc1ccc([N+](=O)[O-])c(O)c1 (10 µM) | inactive: 0 |
| O=C(O)c1sc2cc(Cl)ccc2c1Cl (10 µM) | inactive: 0 |
| Cc1n[nH]cc1-c1cc2nc([C@@H]3CC4CCN3CC4)[nH]c(=O)c2s1 [Simurosertib] (2.5 µM) | inactive: 0 |
| Cn1cc(C2=C(c3cn(C4CCN(Cc5ccccn5)CC4)c4ccccc34)C(=O)NC2=O)c2ccccc21 [Enzastaurin] (10 µM) | inactive: 0 |
| CN(C)C(=O)c1ccc(Cn2c(C(=O)O)cc3c(Br)cc(Sc4ccc(Cl)c(Cl)c4)cc32)cc1 [Rheb inhibitor NR1] (10 µM) | inactive: 0 |
| C/C(O)=C(\C#N)C(=O)Nc1cc(Br)ccc1Br (10 µM) | inactive: 0 |
| O=C1c2ccccc2C(=O)c2c1cccc2-c1cnn(C2CCNCC2)c1 [PDK4-IN-1 (hydrochloride)] (10 µM) | inactive: 0 |
| COc1ccc(N(C(=O)Oc2c(C)cccc2C)c2ccnc(Nc3ccc(N4CCN(C)CC4)cc3)n2)c(OC)c1 (2.5 µM) | inactive: 0 |
| C[C@@H]1CC[C@H]2[C@@H](C)C(=O)O[C@@H]3O[C@@]4(C)CC[C@@H]1[C@]32OO4 [Artemisinin] (10 µM) | inactive: 0 |
| CC(C)(C)c1cc(C=C(C#N)C#N)cc(Br)c1O (2.5 µM) | inactive: 0 |
| CC1=C[C@]23C(=O)[C@@H](C=C(CO)[C@@H](O)[C@]2(O)[C@H]1O)[C@H]1[C@@H](C[C@H]3C)C1(C)C [Ingenol] (10 µM) | inactive: 0 |

Quoted from the listing.
C/C(O)=C(\C#N)C(=O)Nc1cc(Br)ccc1Br (10 µM) – kinase-Nluc reporter destabilization hit call: inactive: 0
CC(C)(C)c1cc(C=C(C#N)C#N)cc(Br)c1O (2.5 µM) – kinase-Nluc reporter destabilization hit call: inactive: 0
